From the supplement of paper PMC6411743
± gives the standard deviation of the averaged measurements. Only a part is listed here, and it is no random draw.

The chains behind the UniProt entries cited, without tags or fusion partners. Where a name states a change or a piece, a line headed by the entry shows the natural chain unless it says otherwise.
UniProt O60826, whole entry: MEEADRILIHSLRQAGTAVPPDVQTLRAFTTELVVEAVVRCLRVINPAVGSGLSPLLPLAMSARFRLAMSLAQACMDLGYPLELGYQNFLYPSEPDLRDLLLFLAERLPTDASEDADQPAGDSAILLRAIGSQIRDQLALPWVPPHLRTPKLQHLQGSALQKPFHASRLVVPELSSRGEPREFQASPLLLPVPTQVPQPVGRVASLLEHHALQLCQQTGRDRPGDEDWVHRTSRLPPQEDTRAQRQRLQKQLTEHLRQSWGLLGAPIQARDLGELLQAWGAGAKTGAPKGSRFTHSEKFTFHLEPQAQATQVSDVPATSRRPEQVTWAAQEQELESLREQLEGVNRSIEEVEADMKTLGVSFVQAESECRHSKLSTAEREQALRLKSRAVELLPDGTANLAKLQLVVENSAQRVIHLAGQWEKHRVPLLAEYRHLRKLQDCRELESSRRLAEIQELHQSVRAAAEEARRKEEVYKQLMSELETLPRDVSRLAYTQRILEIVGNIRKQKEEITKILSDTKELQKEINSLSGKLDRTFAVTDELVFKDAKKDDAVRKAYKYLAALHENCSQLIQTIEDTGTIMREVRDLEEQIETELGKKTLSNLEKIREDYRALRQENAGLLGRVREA
UniProt O95391: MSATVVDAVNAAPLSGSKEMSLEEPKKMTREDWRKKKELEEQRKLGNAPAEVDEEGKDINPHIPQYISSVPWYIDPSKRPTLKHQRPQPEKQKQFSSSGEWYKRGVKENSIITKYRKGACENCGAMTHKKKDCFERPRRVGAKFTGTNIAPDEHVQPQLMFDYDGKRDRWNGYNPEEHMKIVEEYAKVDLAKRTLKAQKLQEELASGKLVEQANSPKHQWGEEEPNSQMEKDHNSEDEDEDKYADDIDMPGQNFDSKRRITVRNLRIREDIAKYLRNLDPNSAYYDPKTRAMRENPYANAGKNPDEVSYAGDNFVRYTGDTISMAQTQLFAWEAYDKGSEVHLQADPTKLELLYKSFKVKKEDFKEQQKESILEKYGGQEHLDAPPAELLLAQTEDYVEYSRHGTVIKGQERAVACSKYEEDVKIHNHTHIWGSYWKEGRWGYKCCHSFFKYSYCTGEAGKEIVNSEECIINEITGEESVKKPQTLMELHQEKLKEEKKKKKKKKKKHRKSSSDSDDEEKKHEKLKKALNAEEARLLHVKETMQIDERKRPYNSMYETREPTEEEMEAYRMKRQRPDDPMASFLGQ
UniProt O75787, whole entry: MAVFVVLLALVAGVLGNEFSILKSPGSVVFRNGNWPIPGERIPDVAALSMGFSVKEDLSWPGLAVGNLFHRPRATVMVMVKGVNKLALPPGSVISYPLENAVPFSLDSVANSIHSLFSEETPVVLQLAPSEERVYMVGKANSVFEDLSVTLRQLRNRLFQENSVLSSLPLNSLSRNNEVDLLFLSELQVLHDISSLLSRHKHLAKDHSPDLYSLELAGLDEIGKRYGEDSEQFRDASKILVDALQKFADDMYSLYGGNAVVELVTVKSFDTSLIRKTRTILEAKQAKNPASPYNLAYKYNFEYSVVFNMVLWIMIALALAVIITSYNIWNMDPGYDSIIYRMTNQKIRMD
UniProt O75093: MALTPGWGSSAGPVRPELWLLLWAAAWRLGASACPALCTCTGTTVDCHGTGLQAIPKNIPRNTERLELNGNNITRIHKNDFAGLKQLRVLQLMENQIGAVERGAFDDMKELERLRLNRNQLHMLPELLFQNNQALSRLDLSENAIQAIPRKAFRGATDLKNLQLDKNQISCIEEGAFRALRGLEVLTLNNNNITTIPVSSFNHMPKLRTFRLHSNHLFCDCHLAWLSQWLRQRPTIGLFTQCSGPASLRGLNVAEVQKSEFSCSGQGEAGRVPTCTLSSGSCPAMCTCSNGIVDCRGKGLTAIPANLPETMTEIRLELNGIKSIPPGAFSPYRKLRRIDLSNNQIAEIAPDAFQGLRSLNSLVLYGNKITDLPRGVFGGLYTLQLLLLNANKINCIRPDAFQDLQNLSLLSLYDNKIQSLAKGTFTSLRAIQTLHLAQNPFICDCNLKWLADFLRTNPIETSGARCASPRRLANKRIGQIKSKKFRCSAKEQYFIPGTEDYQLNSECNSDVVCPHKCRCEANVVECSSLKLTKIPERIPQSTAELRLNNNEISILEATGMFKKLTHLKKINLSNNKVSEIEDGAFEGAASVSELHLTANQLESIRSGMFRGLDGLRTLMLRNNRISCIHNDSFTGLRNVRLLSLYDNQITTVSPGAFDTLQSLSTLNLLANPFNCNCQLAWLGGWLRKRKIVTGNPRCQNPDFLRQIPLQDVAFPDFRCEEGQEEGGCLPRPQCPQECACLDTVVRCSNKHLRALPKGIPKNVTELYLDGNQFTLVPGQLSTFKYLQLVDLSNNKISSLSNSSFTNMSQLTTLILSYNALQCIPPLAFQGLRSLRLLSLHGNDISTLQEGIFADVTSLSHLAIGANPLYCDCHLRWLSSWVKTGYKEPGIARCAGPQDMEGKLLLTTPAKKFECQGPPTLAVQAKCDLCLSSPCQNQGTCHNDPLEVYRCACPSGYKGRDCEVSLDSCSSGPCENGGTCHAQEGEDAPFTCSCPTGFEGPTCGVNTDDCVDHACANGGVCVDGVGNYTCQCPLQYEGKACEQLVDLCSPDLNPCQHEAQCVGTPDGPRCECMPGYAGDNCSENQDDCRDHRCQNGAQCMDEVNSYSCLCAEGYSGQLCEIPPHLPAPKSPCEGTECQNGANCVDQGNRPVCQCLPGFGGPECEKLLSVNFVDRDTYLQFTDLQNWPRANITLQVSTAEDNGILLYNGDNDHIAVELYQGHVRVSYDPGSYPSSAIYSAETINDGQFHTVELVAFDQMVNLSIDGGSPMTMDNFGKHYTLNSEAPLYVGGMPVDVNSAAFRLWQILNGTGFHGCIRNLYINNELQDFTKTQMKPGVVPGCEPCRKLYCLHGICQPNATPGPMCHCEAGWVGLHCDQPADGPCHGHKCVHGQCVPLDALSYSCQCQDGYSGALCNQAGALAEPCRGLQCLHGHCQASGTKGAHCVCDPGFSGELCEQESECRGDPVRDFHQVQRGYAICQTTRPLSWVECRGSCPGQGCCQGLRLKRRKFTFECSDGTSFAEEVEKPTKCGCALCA
UniProt O75379: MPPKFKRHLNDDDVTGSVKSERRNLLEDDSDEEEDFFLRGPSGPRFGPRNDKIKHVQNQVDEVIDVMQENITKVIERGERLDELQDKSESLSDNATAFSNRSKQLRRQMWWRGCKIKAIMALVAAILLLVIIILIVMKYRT
UniProt O95466, whole entry: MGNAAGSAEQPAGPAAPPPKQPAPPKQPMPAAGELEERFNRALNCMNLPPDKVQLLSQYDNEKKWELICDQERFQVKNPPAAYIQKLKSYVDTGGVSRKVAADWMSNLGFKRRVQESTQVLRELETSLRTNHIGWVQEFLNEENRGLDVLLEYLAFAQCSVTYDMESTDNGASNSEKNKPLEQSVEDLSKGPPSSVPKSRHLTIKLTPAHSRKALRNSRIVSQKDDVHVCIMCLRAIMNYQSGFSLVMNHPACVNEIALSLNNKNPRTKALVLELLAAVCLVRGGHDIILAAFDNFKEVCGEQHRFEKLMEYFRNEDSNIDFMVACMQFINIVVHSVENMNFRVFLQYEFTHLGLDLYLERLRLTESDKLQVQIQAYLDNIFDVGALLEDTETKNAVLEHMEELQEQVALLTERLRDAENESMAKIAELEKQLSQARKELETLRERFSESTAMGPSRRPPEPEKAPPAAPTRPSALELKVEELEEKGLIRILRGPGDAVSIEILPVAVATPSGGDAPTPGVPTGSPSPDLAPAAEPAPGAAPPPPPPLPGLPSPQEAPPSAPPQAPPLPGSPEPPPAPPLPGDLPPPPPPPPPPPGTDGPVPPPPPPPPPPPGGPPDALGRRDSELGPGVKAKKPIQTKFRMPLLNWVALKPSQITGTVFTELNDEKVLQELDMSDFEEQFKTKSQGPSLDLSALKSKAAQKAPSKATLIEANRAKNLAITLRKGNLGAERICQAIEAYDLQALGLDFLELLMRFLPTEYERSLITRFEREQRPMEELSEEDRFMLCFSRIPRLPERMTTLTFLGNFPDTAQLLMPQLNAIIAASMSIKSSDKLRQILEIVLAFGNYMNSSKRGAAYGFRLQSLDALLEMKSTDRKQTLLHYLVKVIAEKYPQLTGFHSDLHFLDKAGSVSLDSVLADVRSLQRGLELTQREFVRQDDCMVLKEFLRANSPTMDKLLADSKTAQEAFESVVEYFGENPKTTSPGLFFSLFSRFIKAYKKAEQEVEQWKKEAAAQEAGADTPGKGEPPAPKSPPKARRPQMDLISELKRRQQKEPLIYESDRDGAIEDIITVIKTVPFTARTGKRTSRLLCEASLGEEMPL
UniProt O60749: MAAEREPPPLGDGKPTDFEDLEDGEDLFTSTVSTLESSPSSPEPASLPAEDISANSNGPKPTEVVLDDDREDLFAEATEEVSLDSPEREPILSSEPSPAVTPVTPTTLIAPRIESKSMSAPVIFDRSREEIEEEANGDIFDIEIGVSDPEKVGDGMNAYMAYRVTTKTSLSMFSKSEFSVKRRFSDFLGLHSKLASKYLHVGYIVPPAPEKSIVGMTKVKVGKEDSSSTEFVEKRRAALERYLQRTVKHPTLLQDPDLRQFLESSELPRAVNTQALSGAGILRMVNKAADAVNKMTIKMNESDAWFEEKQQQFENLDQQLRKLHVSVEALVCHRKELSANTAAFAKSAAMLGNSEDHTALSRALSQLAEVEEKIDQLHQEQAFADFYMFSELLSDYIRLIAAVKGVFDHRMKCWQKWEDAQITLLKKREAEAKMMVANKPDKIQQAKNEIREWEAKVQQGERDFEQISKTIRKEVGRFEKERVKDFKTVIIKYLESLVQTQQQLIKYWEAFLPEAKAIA
UniProt O75964: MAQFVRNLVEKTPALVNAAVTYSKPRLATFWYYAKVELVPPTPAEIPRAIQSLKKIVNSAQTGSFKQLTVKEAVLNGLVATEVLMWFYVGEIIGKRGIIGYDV
UniProt O75410: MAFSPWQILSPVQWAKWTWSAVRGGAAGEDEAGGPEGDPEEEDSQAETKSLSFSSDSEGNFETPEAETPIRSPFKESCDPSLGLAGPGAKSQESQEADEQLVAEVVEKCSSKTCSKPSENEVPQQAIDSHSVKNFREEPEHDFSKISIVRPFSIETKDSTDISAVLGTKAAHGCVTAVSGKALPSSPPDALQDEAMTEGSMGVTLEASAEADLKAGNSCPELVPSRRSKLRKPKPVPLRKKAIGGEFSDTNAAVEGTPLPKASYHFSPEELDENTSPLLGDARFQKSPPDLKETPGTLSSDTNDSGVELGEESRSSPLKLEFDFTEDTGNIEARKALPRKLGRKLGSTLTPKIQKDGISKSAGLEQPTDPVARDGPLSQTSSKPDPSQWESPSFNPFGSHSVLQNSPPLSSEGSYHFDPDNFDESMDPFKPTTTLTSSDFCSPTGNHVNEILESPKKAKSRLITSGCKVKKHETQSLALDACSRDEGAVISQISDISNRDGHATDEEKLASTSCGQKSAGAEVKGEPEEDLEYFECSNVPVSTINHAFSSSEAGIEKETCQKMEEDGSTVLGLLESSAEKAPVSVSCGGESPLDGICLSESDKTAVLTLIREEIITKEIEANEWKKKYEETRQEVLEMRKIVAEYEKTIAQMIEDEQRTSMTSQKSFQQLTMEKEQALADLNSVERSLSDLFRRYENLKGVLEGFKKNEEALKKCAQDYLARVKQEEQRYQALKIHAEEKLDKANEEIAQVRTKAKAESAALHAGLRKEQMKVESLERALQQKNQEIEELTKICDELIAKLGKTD
UniProt O75781: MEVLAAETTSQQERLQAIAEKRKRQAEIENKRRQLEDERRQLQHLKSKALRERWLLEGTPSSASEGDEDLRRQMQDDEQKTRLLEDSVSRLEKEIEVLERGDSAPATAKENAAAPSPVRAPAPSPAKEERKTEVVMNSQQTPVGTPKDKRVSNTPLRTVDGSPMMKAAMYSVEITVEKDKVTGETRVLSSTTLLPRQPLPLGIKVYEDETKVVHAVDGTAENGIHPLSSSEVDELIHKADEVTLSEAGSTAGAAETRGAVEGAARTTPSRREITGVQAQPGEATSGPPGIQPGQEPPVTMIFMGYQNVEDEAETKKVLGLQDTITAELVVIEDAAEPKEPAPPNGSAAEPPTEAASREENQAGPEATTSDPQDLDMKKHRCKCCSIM
UniProt O94768: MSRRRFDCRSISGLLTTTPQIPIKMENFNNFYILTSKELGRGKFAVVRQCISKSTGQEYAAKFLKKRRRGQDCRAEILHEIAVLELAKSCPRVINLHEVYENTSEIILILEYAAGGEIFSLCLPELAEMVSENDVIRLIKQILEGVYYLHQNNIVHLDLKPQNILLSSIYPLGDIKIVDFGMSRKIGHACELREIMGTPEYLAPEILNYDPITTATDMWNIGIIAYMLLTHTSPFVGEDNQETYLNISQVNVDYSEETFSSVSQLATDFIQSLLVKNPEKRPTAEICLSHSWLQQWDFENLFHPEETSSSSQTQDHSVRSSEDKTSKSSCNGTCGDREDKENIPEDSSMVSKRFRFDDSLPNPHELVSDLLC

Compound: Nc1ncnc2c1ncn2[C@@H]1O[C@H](COP(=O)(O)OP(=O)(O)OP(=O)(O)O)[C@@H](O)[C@H]1O [adenosine triphosphate]
Assay: NP40-soluble protein abundance relative to vehicle (solubility fold change) (ratio); higher = more soluble protein in presence of ATP
Procedure, shortened: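 Eight concentrations, 0.1 to 10 mM, were tested on Jurkat crude lysate for 10 min at room temperature and then 3 min at 37 °C, in three independent experiments. The lysate was solubilised with 0.8% NP40 and benzonase, ultracentrifuged, and the supernatant TMT-labelled for LC-MS/MS. Each value is the fold change against the detergent-processed vehicle in its own replicate, from vsn-normalised intensities.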

Target	NP40-soluble protein abundance (concentration: 1mM)	NP40-soluble protein abundance (concentration: 2mM)	NP40-soluble protein abundance (concentration: 4mM)	NP40-soluble protein abundance (concentration: 6mM)	NP40-soluble protein abundance (concentration: 8mM)	NP40-soluble protein abundance (concentration: 10mM)
UniProt O60488 and related entries	1.07 ± 0.094	1.07 ± 0.078	1.06 ± 0.1	0.99 ± 0.14	1.08 ± 0.07	1.05 ± 0.039
UniProt O94964-2	1.09 ± 0.067	1.04 ± 0.068	0.99 ± 0.055	1.06 ± 0.17	1.07 ± 0.04	1.07 ± 0.041
CCDC22 (UniProt O60826)	0.961 ± 0.036	0.9488 ± 0.0077	0.964 ± 0.024	0.941 ± 0.04	0.982 ± 0.011	0.934 ± 0.012
CD2BP2 (UniProt O95400)	1.03 ± 0.079	1.13 ± 0.12	1.24 ± 0.15	1.36 ± 0.21	1.36 ± 0.18	1.38 ± 0.21
UniProt O95235 and related entries	1.25 ± 0.06	1.29 ± 0.094	1.3 ± 0.059	1.38 ± 0.094	1.37 ± 0.081	1.43 ± 0.089
SLU7 (UniProt O95391)	0.886 ± 0.048	0.895 ± 0.043	0.903 ± 0.061	0.988 ± 0.16	1.05 ± 0.069	1.12 ± 0.073
STAMBP (UniProt O95630)	0.977 ± 0.032	0.976 ± 0.032	0.94 ± 0.03	0.984 ± 0.043	0.948 ± 0.04	0.94 ± 0.018
RBBP9 (UniProt O75884)	0.984 ± 0.029	1.04 ± 0.0084	0.989 ± 0.073	1.01 ± 0.047	0.983 ± 0.036	1 ± 0.028
SS18L1 (UniProt O75177)	1.06 ± 0.11	1.08 ± 0.067	1.08 ± 0.1	1.11 ± 0.18	1.05 ± 0.11	1.08 ± 0.027
DENND4B (UniProt O75064)	0.912 ± 0.036	0.999 ± 0.034	0.977 ± 0.022	0.997 ± 0.01	0.942 ± 0.021	0.99 ± 0.058
UniProt O75787 and related entries	0.97 ± 0.013	1.01 ± 0.037	1.04 ± 0.08	0.943 ± 0.039	0.989 ± 0.091	0.997 ± 0.092
TMCC1 (UniProt O94876)	1.02 ± 0.13	0.907 ± 0.053	0.893 ± 0.077	0.931 ± 0.013	0.971 ± 0.043	0.927 ± 0.037
UniProt O94927	0.95 ± 0.042	0.9783 ± 0.0027	1.04 ± 0.019	0.977 ± 0.034	0.992 ± 0.027	0.992 ± 0.043
UniProt O75093	0.996 ± 0.034	1 ± 0.048	1.05 ± 0.094	1.11 ± 0.13	1.12 ± 0.14	1.18 ± 0.099
UniProt O75379 and related entries	1.04 ± 0.23	1.04 ± 0.21	1.08 ± 0.14	1.08 ± 0.11	1.05 ± 0.11	1.01 ± 0.093
UniProt O95466-2	0.955 ± 0.062	0.946 ± 0.062	0.922 ± 0.071	0.953 ± 0.051	0.914 ± 0.045	0.936 ± 0.035
ZFPL1 (UniProt O95159)	0.993 ± 0.058	1.05 ± 0.044	1.02 ± 0.014	0.994 ± 0.064	1 ± 0.049	1.01 ± 0.039
NMT2 (UniProt O60551)	1.08 ± 0.041	1.13 ± 0.043	1.15 ± 0.078	1.15 ± 0.063	1.15 ± 0.034	1.2 ± 0.039
UniProt O95243 and related entries	1.03 ± 0.042	1.03 ± 0.069	1.11 ± 0.069	1.08 ± 0.067	1.12 ± 0.07	1.17 ± 0.034
UniProt O75170-3|O75170-4|O75170-5|O75170	1.03 ± 0.034	0.993 ± 0.056	1.02 ± 0.067	1.03 ± 0.077	1 ± 0.057	0.996 ± 0.09
UniProt O60749 and related entries	0.948 ± 0.029	0.968 ± 0.01	0.9157 ± 0.0022	0.989 ± 0.031	0.917 ± 0.022	0.919 ± 0.022
UniProt O75964	0.865 ± 0.016	0.886 ± 0.054	0.86 ± 0.077	0.823 ± 0.05	0.812 ± 0.023	0.803 ± 0.084
UniProt O75410 and related entries	0.944 ± 0.065	0.954 ± 0.032	0.9509 ± 0.0038	0.97 ± 0.013	0.902 ± 0.03	0.908 ± 0.047
UniProt O95104 and related entries	1.43 ± 0.097	1.46 ± 0.063	1.45 ± 0.031	1.49 ± 0.028	1.44 ± 0.059	1.45 ± 0.028
UniProt O95749 and related entries	1 ± 0.032	0.987 ± 0.049	0.969 ± 0.03	0.961 ± 0.026	0.957 ± 0.054	0.926 ± 0.052
UniProt O75382 and related entries	1.11 ± 0.066	1.09 ± 0.037	1.12 ± 0.075	1.18 ± 0.059	1.18 ± 0.049	1.21 ± 0.11
PALM (UniProt O75781)	0.919 ± 0.071	0.938 ± 0.049	0.955 ± 0.039	0.939 ± 0.02	0.888 ± 0.032	0.892 ± 0.082
UniProt O94768	1.15 ± 0.045	1.14 ± 0.052	1.14 ± 0.084	1.19 ± 0.053	1.15 ± 0.042	1.12 ± 0.048

Record cards (already shown). Order of values: NP40-soluble protein abundance (concentration: 1mM)	NP40-soluble protein abundance (concentration: 2mM)	NP40-soluble protein abundance (concentration: 4mM)	NP40-soluble protein abundance (concentration: 6mM)	NP40-soluble protein abundance (concentration: 8mM)	NP40-soluble protein abundance (concentration: 10mM)
RBBP9 (UniProt O75884) in the list: 0.984 ± 0.029	1.04 ± 0.0084	0.989 ± 0.073	1.01 ± 0.047	0.983 ± 0.036	1 ± 0.028
UniProt O75964 in the list: 0.865 ± 0.016	0.886 ± 0.054	0.86 ± 0.077	0.823 ± 0.05	0.812 ± 0.023	0.803 ± 0.084
